Source: patent publication US20060128708A1, “Antagonizing an adenosine A2A receptor to ameliorate one or more components of addictive behavior” (priority 2004, published 2006)

Tested on: Male Long Evans rats
Test: Ethanol operant self-administration in rats (30 min FR3 session, 10% EtOH)
Assay type: in vivo, rat
Settings: mean ± SEM
Method: Separate groups of rats were given the D2 antagonist eticlopride (0.005, 0.007, 0.01 mg/kg), the A2A antagonist DMPX (1, 3, 5, 7, 10 and 20 mg/kg) and the Al antagonist DPCPX (0.125, 0.25, 0.5 mg/kg) by systemic injections.
Male Long Evans rats (Harlan, Indianapolis, Ind.) weighing approximately 250 g at the beginning of the studies, were individually housed with food and water available ad libitum except when stated otherwise. They were maintained on a 12 h light/dark cycle, lights on at 7:00 am. Operant training occurred between 8:30 am and 2:00 pm. The experimental procedures were approved in advance by our Institutional Animal Care and Use Committee.
EtOH dilution (10% v/v) for self-administration was made up using 95% ethyl alcohol and tap water. Sucrose (Saccharose, Fisher Scientific, Fair Lawn, N.J., USA) solution (10% w/v) was made up with tap water. All the compounds tested were obtained from Sigma Chemical Co. (St. Louis, Mo.). The A2A antagonist DMPX (3,7-Dimethyl-1-propargylxanthine) was dissolved in warm saline. The A1 antagonist DPCPX (8-Cyclopentyl-1,3-dipropylxanthine) was dissolved in 20:80 v/v mixture of Alkamuls EL-620 (Rhodia Inc., Cranbury, N.J., USA) and phosphate buffered saline. The D2 antagonist, eticlopride, was dissolved in saline. Drugs were administered in a 1 ml/kg volume except for the group tested with 5, 7 and 20 mg/kg DMPX, in which the injection volume was 2 ml/kg as the highest DMPX soluble concentration achieved was 10 mg/ml. Drugs were prepared fresh every treatment day.
EtOH operant self-administration was carried out in standard operant chambers (Med Associates, Georgia, Vt.) housed in sound-attenuated cubicles. Each chamber (33×30.5×33 cm) contained two retractable levers against the right wall, 7 cm from the floor and 1 cm from the right or left edge of the right wall, respectively. One recessed dish positioned at 2.5 cm above floor level and 6 cm from the levers towards the center of the chamber was the reinforcer receptacle. Fluid (0.1 ml) was delivered from syringe pumps upon activation of 1 of the 2 retractable response levers. A 3 sec tone was activated upon lever pressing. […] The beginning of a training session was signaled by the onset of the house light located in the center of the wall facing the levers, at 27.2 cm above the floor. A computer controlled stimulus and fluid delivery and recorded operant responses.
Before the beginning of EtOH operant self-administration, rats were exposed to a 10% EtOH (1OE) solution as the only liquid source in their home cages for 4 days. For the next 14 days, animals were allowed free choice between 10E in tap water or tap water from graded glass tubes. At the end of this 14-day period, operant self-administration was initiated according to the sucrose fading technique (Samson, 1986) with minor modifications. Rats were restricted to 30 minutes of water per day for 2 consecutive days. On the night of the second day of water restriction, rats were placed in the operant chambers for a 12-15 hrs overnight session on an FR1 schedule (1 reinforcement of 0.1 ml per lever press) with 10% sucrose (10S) as reinforcer and both levers active. The next day, rats began the operant self-administration training. Animals were kept on water restriction for the next 4-5 days during which they received one 45 min session per day on an FR1 schedule with 10S as reinforcer and one active lever. They were then given free water in their home cages for the remainder of the experiment and were trained for 2-3 more of the above described sessions. The next day, sessions were shortened to 30 minutes and the ratio of responding was increased to FR3. EtOH was added to the sweet solution (10S10E) and rats received 3-4 sessions of this solution, followed by at least 20 sessions with 10E only. A minimum average of 0.3 g/kg EtOH consumption in 8 sessions prior to the beginning of any drug treatment was required. […]

CCc1cc(Cl)c(OC)c(C(=O)NC[C@@H]2CCCN2CC)c1O [eticlopride]
number of inactive lever presses (eticlopride 0.005 mg/kg sc 25 min prior to session): 2.00 ± 0.58 | number of inactive lever presses (eticlopride 0.007 mg/kg sc 25 min prior to session): 1.00 ± 0.41 | number of inactive lever presses (eticlopride 0.01 mg/kg sc 25 min prior to session): 1.83 ± 0.98

CCCn1c(=O)c2[nH]c(C3CCCC3)nc2n(CCC)c1=O [DPCPX, 8-Cyclopentyl-1,3-dipropylxanthine]
number of inactive lever presses (DPCPX 0.125 mg/kg ip 15 min prior to session): 1.78 ± 0.62 | number of inactive lever presses (DPCPX 0.25 mg/kg ip 15 min prior to session): 2.36 ± 1.08 | number of inactive lever presses (DPCPX 0.5 mg/kg ip 15 min prior to session): 2.86 ± 0.88

C#CCn1c(=O)c2c(ncn2C)n(C)c1=O [DMPX, 3,7-Dimethyl-1-propargylxanthine]
number of inactive lever presses (DMPX 1 mg/kg ip 20 min prior to 30 min FR3 session): 2.60 ± 0.85 | number of inactive lever presses (DMPX 3 mg/kg ip 20 min prior to 30 min FR3 session): 1.50 ± 0.37 | number of inactive lever presses (DMPX 5 mg/kg ip 20 min prior to 30 min FR3 session): 3.56 ± 1.29 | number of inactive lever presses (DMPX 7 mg/kg ip 20 min prior to 30 min FR3 session): 3.93 ± 2.17 | number of inactive lever presses (DMPX 10 mg/kg ip 20 min prior to 30 min FR3 session): 3.60 ± 1.76 | number of inactive lever presses (DMPX 20 mg/kg ip 20 min prior to 30 min FR3 session): 3.87 ± 0.64
